What was measured:
active sludge = conditions: OECD, cited from earlier work; for Maximum level of biodegradation: after 28 days
[1] = tested on: active sludge (bacterial cultures); assay: Biodegradation in the mineral medium by CO2 production (aerobic, active sludge); conditions: for Phase of degradation: Degradation phase (degradation level) / Phase of degradation: Degradation phase (time) / Phase of degradation: Lag phase (degradation level) / Phase of degradation: Lag phase (time) / Phase of degradation: Plateau phase (degradation level) / Phase of degradation: Plateau phase (time): 28-day (672 h) test; for Time to reach 10% degradation (end of lag phase): adaptation of microorganisms in the lag phase; for Qualitative assessment of aerobic biodegradability (Readily / Poorly biodegradable) / Maximum level (degree) of biodegradation after 28 days: after 28 days; for Maximum level (degree) of biodegradation after 28 days: CO2 released, mean ± SD; for Biodegradation after 3 cycles of tests: mean ± SD (n = 6)

| Structure (SMILES) | Maximum level of biodegradation (active sludge) [%] | Phase of degradation: Degradation phase (degradation level) ([1]; active sludge) | Phase of degradation: Degradation phase (time) ([1]; active sludge) [h] | Phase of degradation: Lag phase (degradation level) ([1]; active sludge) | Phase of degradation: Lag phase (time) ([1]; active sludge) [h] | Phase of degradation: Plateau phase (degradation level) ([1]; active sludge) | Phase of degradation: Plateau phase (time) ([1]; active sludge) [h] | Time to reach 10% degradation (end of lag phase) [1] [h] | Qualitative assessment of aerobic biodegradability (Readily / Poorly biodegradable) [1] | Maximum level (degree) of biodegradation after 28 days [1] [%] | Biodegradation after 3 cycles of tests ([1]; time 0 days) [%] | Biodegradation after 3 cycles of tests ([1]; time 1 days) [%] | Biodegradation after 3 cycles of tests ([1]; time 2 days) [%] | Biodegradation after 3 cycles of tests ([1]; time 6 days) [%] | Biodegradation after 3 cycles of tests ([1]; time 7 days) [%] | Biodegradation after 3 cycles of tests ([1]; time 9 days) [%] | Biodegradation after 3 cycles of tests ([1]; time 13 days) [%] | Biodegradation after 3 cycles of tests ([1]; time 14 days) [%] | Biodegradation after 3 cycles of tests ([1]; time 16 days) [%] | Biodegradation after 3 cycles of tests ([1]; time 17 days) [%] | further results |
| --- | --- | --- | --- | --- | --- | --- | --- | --- | --- | --- | --- | --- | --- | --- | --- | --- | --- | --- | --- | --- | --- |
| CC(C)Cc1ccc(C(C)C(=O)O)cc1 (racemic) [(R,S)-ibuprofen] | – | – | – | – | – | – | – | – | – | – | – | – | – | – | – | – | – | – | – | – | Start of degradation (active sludge): started only after five days of incubation |
| CC(C)Cc1ccc([C@@H](C)C(=O)O)cc1 [(R)-ibuprofen] | 68 | – | – | – | – | – | – | – | – | – | – | – | – | – | – | – | – | – | – | – | – |
| CC(C)Cc1ccc([C@H](C)C(=O)O)cc1 [(S)-ibuprofen] | 50 | – | – | – | – | – | – | – | – | – | – | – | – | – | – | – | – | – | – | – | – |
| CCCCCCCCCCCCOS(=O)(=O)[O-].[Na+] [SDS, sodium dodecyl sulfate, reference compound] | – | 9–78% | 15 to 537 | 0–9% | 0 to 15 | 78–87% | 537 to 672 | 15 | Readily | 86.8 | 1 ± 1.50 | 12 ± 8.91 | 28 ± 10.24 | 49 ± 2.87 | 52 ± 5.06 | 56 ± 3.70 | 62 ± 3.11 | 67 ± 2.89 | 71 ± 2.22 | 77 ± 4.19 | Classification of biodegradability (in words) ([1]; active sludge, 28 days): easily biodegradable; Biodegradation after 3 cycles of tests ([1]; time 22 days): 80 ± 6.29%; Biodegradation after 3 cycles of tests ([1]; time 23 days): 80 ± 6.50%; Biodegradation after 3 cycles of tests ([1]; time 27 days): 84 ± 8.85%; Biodegradation after 3 cycles of tests ([1]; time 28 days): 87 ± 8.54% |
| CC(C)Cc1ccc(C(C)C(=O)O)cc1.CCCCCCCCOC(=O)[C@@H](N)C(C)C [[ValOOct][IBU]] | – | 4–35% | 37 to 524 | 0–4% | 0 to 37 | 35–39% | 524 to 672 | 37 | Poorly | 39.0 | 0 ± 3.60 | 3 ± 1.92 | 5 ± 1.77 | 13 ± 1.23 | 14 ± 1.27 | 16 ± 5.43 | 26 ± 3.83 | 31 ± 2.70 | 35 ± 3.31 | 36 ± 5.28 | Biodegradation after 3 cycles of tests ([1]; time 22 days): 37 ± 5.07%; Biodegradation after 3 cycles of tests ([1]; time 23 days): 37 ± 6.74%; Biodegradation after 3 cycles of tests ([1]; time 27 days): 37 ± 6.65%; Biodegradation after 3 cycles of tests ([1]; time 28 days): 39 ± 5.43% |

— PMC8228323, “Biodegradation of L-Valine Alkyl Ester Ibuprofenates by Bacterial Cultures” (Materials, 2021)
